Data reported in PubChem BioAssay AID248 (DTP/NCI, 2004).
The list is a part of this screen's results and no random one: it gathers tests that were run many times, whatever their T/C, doses with no T/C, and many T/C values between a quarter and a half above the control. Further doses and runs are listed elsewhere. T/C: endpoint of the treated group in % of that of the vehicle group. Some doses have a count of surviving animals in place of a T/C: the source files T/C as zero there, which appears to mark a toxic dose or a test without result, not a measured value. Some survivor counts are full or nearly so, which does not show that the dose was tolerated: survival well below the control is almost never listed, so the zero probably covers shortened survival too. Survivors were counted at the toxicity check, usually on the fifth day, unless a day is given; later deaths do not show. Schedule codes are those of the source, taken here to give the interval after Q, in days (D) or hours (H), and the number of doses after X. Some entries were tested several times; the values are given in rising order. Some schedules carry Z or #; the key to these is not given. Some structures stand for samples that the source files as different forms (salt, stereo form or complex); doses refer to the form tested. Where survival is the endpoint, this PubChem deposit counts one and a half times the control or more as active, and values a quarter to a half above the control carry no call in these data; other NCI protocols may use other cut-offs.

System: L1210 leukemia ip in BDF1 mice, survival T/C
Test: NCI In Vivo Anticancer Drug Screen. Data for tumor model L1210 Leukemia (intraperitoneal) in B6D2F1 (BDF1) mice
Settings: T/C endpoint: mean survival time, higher T/C = longer survival
[1] = dose: 400.0 mg/kg/injection, schedule: Q01DX009 (ip), vehicle: saline with Tween-80
[2] = dose: 400.0 mg/kg/injection, schedule: Q01DX001 (ip), vehicle: carboxymethylcellulose (CMC)
[3] = dose: 400.0 mg/kg/injection, schedule: Q04DX003 (ip), vehicle: Klucel (hydroxypropylcellulose) (HPC)
[4] = dose: 50.0 mg/kg/injection, schedule: Q01DX001 (ip), vehicle: carboxymethylcellulose (CMC)
[5] = dose: 200.0 mg/kg/injection, schedule: Q01DX001 (ip), vehicle: carboxymethylcellulose (CMC)
[6] = dose: 50.0 mg/kg/injection, schedule: Q01DX009 (ip), vehicle: saline with Tween-80
[7] = dose: 200.0 mg/kg/injection, schedule: Q01DX009 (ip), vehicle: saline with Tween-80
[8] = dose: 400.0 mg/kg/injection, schedule: Q04DX003 (ip), vehicle: saline
[9] = dose: 100.0 mg/kg/injection, schedule: Q04DX003 (ip), vehicle: saline with Tween-80
[10] = dose: 400.0 mg/kg/injection, schedule: Q04DX003 (ip), vehicle: saline with Tween-80
[11] = dose: 100.0 mg/kg/injection, schedule: Q01DX009 (ip), vehicle: saline with Tween-80

## C[OH+]c1ccccc1C(=O)O.C[OH+]c1ccccc1C(=O)O.[Ni]
dose: 400.0 mg/kg/injection, schedule: Q04DX002 (ip), vehicle: saline with Tween-80
  survivor count: 2 of 3

## O=C(O)CC(NC(=O)OCc1ccccc1)c1ccccc1 (stereo not drawn)
[1]
  survivor count: 0 of 3 and 2 of 6

## Nc1ccc(Cl)c(Cl)c1
dose: 200.0 mg/kg/injection, schedule: Q01DX009 (ip), vehicle: alcohol
  survivor count: 0 of 6
dose: 300.0 mg/kg/injection, schedule: Q01DX009 (ip), vehicle: alcohol
  survivor count: 0 of 6
[2]
  survivor count: 2 of 4
dose: 400.0 mg/kg/injection, schedule: Q04DX003 (ip), vehicle: alcohol
  survivor count: 0 of 6

## COc1ccc(C[C@H]2NC[C@H](O)[C@H]2OC(C)=O)cc1
dose: 400.0 mg/kg/injection, schedule: Q01DX Z (ip), vehicle: saline
  survivor count: 2 of 6

## O=C1OCC/C1=C/c1cccc(O)c1
dose: 12.5 mg/kg/injection, schedule: Q04DX002 (ip), vehicle: Klucel (hydroxypropylcellulose) (HPC)
  survivor count: 0 of 3
dose: 25.0 mg/kg/injection, schedule: Q04DX002 (ip), vehicle: Klucel (hydroxypropylcellulose) (HPC)
  survivor count: 1 of 3
dose: 50.0 mg/kg/injection, schedule: Q04DX002 (ip), vehicle: Klucel (hydroxypropylcellulose) (HPC)
  survivor count: 0 of 3

## O=c1c(Cl)c(C(Cl)(Cl)Cl)c2ccccc2n1O
[3]
  survivor count: 3 of 3

## c1ccc2c(c1)ccc1nc3ccc4ccccc4c3cc12
dose: 10.0 mg/kg/injection, schedule: Q01DX001 (ip), vehicle: saline
  survivor count: 3 of 4
dose: 100.0 mg/kg/injection, schedule: Q01DX001 (ip), vehicle: saline
  survivor count: 4 of 4
dose: 200.0 mg/kg/injection, schedule: Q01DX001 (ip), vehicle: saline
  survivor count: 4 of 4
dose: 400.0 mg/kg/injection, schedule: Q01DX001 (ip), vehicle: saline
  survivor count: 4 of 4

## CS(=O)(=O)Oc1nn2c(OS(C)(=O)=O)nnc2s1
dose: 20.0 mg/kg/injection, schedule: Q01DX001 (ip), vehicle: saline
  T/C: 132 % of control
dose: 30.0 mg/kg/injection, schedule: Q01DX001 (ip), vehicle: saline
  survivor count: 2 of 4
dose: 40.0 mg/kg/injection, schedule: Q01DX001 (ip), vehicle: saline
  survivor count: 0 of 4
[4]
  survivor count: 0 of 4
dose: 80.0 mg/kg/injection, schedule: Q01DX001 (ip), vehicle: saline
  survivor count: 0 of 4
dose: 100.0 mg/kg/injection, schedule: Q01DX001 (ip), vehicle: carboxymethylcellulose (CMC)
  survivor count: 0 of 4
[5]
  survivor count: 0 of 4
[2]
  survivor count: 0 of 4

## S=C(Nc1ccccc1)Nc1ccc(Cl)c(Cl)c1
[6]
  survivor count: 6 of 6
[7]
  survivor count: 6 of 6
[1]
  survivor count: 0 of 6

## CC1(C)OC2COC(CN(N=O)C(N)=O)C2O1 (stereo not drawn)
dose: 150.0 mg/kg/injection, schedule: Q01DX001 (ip), vehicle: saline
  survivor count: 2 of 6
dose: 300.0 mg/kg/injection, schedule: Q01DX001 (ip), vehicle: saline
  survivor count: 0 of 6

## N=C(N)SCc1ccc(C(=O)Oc2ccc([N+](=O)[O-])cc2)cc1
dose: 100.0 mg/kg/injection, schedule: Q01DX009 (ip), vehicle: saline
  survivor count: 3 of 6
dose: 200.0 mg/kg/injection, schedule: Q01DX009 (ip), vehicle: saline
  survivor count: 1 of 6
[8]
  survivor count: 1 of 6

## Cn1c2c(c(=O)n(C)c1=O)CC(=O)N2
dose: 200.0 mg/kg/injection, schedule: Q01DX009 (ip), vehicle: Klucel (hydroxypropylcellulose) (HPC)
  survivor count: 0 of 3

## O=C1c2cccc3cccc(c23)C(=O)N1CCCN1C(=O)c2cccc3cccc(c23)C1=O
dose: 400.0 mg/kg/injection, schedule: Q04DX002 (ip), vehicle: Klucel (hydroxypropylcellulose) (HPC)
  survivor count: 0 of 3

## C/C=C(\c1ccccc1)[N+](=O)[O-]
dose: 100.0 mg/kg/injection, schedule: Q01DX001 (ip), vehicle: acetone
  survivor count: 5 of 6
dose: 113.0 mg/kg/injection, schedule: Q04DX003 (ip), vehicle: saline
  survivor count: 6 of 6
dose: 169.0 mg/kg/injection, schedule: Q04DX003 (ip), vehicle: saline
  survivor count: 4 of 6
dose: 200.0 mg/kg/injection, schedule: Q01DX001 (ip), vehicle: acetone
  survivor count: 0 of 6
dose: 400.0 mg/kg/injection, schedule: Q01DX001 (ip), vehicle: acetone
  survivor count: 0 of 6

## CC(C)CCc1c(N)nc(N)nc1N
dose: 100.0 mg/kg/injection, schedule: Q04DX003 (ip), vehicle: Klucel (hydroxypropylcellulose) (HPC)
  survivor count: 2 of 6
dose: 200.0 mg/kg/injection, schedule: Q04DX003 (ip), vehicle: Klucel (hydroxypropylcellulose) (HPC)
  survivor count: 0 of 6
[3]
  survivor count: 0 of 6

## O=C(Nc1cccnc1)c1ccccc1
[9]
  survivor count: 3 of 6
dose: 200.0 mg/kg/injection, schedule: Q04DX003 (ip), vehicle: saline with Tween-80
  survivor count: 0 of 6
[10]
  survivor count: 0 of 6

## CCCCNc1cc2c3c(c1)CCCN3CCC2
dose: 50.0 mg/kg/injection, schedule: Q01DX009 (ip), vehicle: saline
  survivor count: 0 of 6
dose: 100.0 mg/kg/injection, schedule: Q04DX003 (ip), vehicle: saline
  survivor count: 1 of 6
dose: 200.0 mg/kg/injection, schedule: Q04DX003 (ip), vehicle: saline
  survivor count: 0 of 6
[8]
  survivor count: 0 of 6

## Nc1c(Cl)cc(S(N)(=O)=O)cc1Cl
dose: 400.0 mg/kg/injection, schedule: Q01DX009 (ip), vehicle: other
  survivor count: 3 of 6

## C=C(Br)CN(C)C
[11]
  survivor count: 0 of 6
[7]
  survivor count: 0 of 6
[10]
  survivor count: 0 of 6

## CN(C)C(=S)NCc1ccccc1
[1]
  survivor count: 3 of 6

## Cc1cccc(N2C(=O)CSC2=S)c1
[6]
  survivor count: 6 of 6
[11]
  survivor count: 6 of 6
[7]
  survivor count: 6 of 6
[1]
  survivor count: 6 of 6

## CSc1nnc2scnn12
[2]
  survivor count: 0 of 4

## Clc1ccc2c(c1)/C(=C/c1cccnc1)c1cc(Cl)cc(Cl)c1-2
dose: 100.0 mg/kg/injection, schedule: Q01DX001 (ip), vehicle: Klucel (hydroxypropylcellulose) (HPC)
  survivor count: 6 of 6
dose: 400.0 mg/kg/injection, schedule: Q01DX009 (ip), vehicle: Klucel (hydroxypropylcellulose) (HPC)
  survivor count: 6 of 6

## O=C(Nc1cccc(C(F)(F)F)c1)c1ccc(Cl)c(Cl)c1
dose: 200.0 mg/kg/injection, schedule: Q01DX009 (ip), vehicle: gum acacia
  survivor count: 6 of 6

## O=NN(CCCl)C(=O)NC1CCS(=O)(=O)CC1
dose: 3.0 mg/kg/injection, schedule: Q01DX001 (ip), vehicle: carboxymethylcellulose (CMC)
  T/C: 139 % of control
dose: 27.0 mg/kg/injection, schedule: Q01DX001 (ip), vehicle: carboxymethylcellulose (CMC)
  T/C: 135 % of control
[4]
  survivor count: 6 of 6
dose: 75.0 mg/kg/injection, schedule: Q01DX001 (ip), vehicle: carboxymethylcellulose (CMC)
  survivor count: 3 of 6
dose: 150.0 mg/kg/injection, schedule: Q01DX001 (ip), vehicle: carboxymethylcellulose (CMC)
  survivor count: 1 of 6
[5]
  survivor count: 0 of 6
dose: 300.0 mg/kg/injection, schedule: Q01DX001 (ip), vehicle: carboxymethylcellulose (CMC)
  survivor count: 0 of 6
dose: 350.0 mg/kg/injection, schedule: Q01DX001 (ip), vehicle: carboxymethylcellulose (CMC)
  survivor count: 0 of 6
dose: 375.0 mg/kg/injection, schedule: Q01DX001 (ip), vehicle: carboxymethylcellulose (CMC)
  survivor count: 0 of 6
dose: 500.0 mg/kg/injection, schedule: Q01DX001 (ip), vehicle: carboxymethylcellulose (CMC)
  survivor count: 0 of 6

## O=C1OC(=O)C2C1C1(Cl)CC2(Cl)C(Cl)=C1Cl (stereo not drawn)
dose: 300.0 mg/kg/injection, schedule: Q01DX009 (ip), vehicle: other
  survivor count: 0 of 6

## NNc1ccc(-c2ccc(NN)cc2)cc1
[9]
  survivor count: 0 of 6
